The results in this text go back to paper PMC5570191.

Sequences of proteins named here, by UniProt entry; tags and fusion partners are left off.
UniProt Q6WKZ8: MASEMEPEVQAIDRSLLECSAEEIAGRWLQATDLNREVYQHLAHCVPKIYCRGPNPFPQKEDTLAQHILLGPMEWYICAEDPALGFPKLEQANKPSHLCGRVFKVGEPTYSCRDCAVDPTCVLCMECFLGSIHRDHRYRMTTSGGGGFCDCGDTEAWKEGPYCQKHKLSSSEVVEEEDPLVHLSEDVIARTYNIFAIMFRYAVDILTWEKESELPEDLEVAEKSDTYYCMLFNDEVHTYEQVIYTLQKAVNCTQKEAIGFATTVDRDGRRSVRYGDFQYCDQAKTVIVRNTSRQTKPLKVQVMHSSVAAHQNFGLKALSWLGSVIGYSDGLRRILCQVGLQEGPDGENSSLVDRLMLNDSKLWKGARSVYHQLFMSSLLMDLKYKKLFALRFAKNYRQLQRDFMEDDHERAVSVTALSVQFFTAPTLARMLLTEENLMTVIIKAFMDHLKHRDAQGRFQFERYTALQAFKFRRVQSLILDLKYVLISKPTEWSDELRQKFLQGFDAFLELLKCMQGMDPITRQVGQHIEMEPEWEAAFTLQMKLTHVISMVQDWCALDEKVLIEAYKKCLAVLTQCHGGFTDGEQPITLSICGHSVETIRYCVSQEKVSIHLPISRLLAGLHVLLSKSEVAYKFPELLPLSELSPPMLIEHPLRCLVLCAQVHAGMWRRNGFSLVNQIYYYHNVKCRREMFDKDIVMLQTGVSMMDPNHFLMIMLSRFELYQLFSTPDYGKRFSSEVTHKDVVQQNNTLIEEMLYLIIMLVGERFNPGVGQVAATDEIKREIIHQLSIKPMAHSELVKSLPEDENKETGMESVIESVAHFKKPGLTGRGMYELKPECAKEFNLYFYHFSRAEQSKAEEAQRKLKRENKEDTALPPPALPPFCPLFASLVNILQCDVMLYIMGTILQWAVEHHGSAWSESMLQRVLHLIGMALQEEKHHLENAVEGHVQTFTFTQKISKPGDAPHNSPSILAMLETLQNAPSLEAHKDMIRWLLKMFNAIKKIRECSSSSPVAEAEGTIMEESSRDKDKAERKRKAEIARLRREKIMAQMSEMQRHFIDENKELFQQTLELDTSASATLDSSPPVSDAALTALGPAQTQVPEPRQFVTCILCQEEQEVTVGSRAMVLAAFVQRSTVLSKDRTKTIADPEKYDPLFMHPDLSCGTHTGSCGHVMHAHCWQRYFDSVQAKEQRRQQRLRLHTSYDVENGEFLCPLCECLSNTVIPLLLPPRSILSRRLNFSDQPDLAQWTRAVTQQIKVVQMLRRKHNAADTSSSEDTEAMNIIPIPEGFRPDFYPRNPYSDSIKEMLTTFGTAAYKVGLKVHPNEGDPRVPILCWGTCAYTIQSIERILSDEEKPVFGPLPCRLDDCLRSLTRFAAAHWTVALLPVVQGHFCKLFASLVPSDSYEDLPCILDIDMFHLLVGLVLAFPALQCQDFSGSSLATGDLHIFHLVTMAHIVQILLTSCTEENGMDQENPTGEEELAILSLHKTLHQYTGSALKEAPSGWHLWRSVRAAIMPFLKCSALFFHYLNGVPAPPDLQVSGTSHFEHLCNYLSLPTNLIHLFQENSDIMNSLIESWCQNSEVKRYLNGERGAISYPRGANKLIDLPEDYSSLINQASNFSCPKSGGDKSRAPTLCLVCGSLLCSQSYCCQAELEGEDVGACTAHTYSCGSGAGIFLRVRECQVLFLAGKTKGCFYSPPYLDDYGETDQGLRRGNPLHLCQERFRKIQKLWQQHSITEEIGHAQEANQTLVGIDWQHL

These are yes or no findings as the source states them, for the method shown. For some of these results: Binding seen in cells or lysates may run through a third protein. Some results given as binding are weak or reduced against the parent protein; the word gives no strength. For some of these results: Tags and fused reporters may be left off the sequences shown.

For assay [1], the target named is T1, mouse TEX19.1-YFP (expressed in HEK293 or HEK293T cells) (mouse) (UniProt Q99MV2).
T1 sequence: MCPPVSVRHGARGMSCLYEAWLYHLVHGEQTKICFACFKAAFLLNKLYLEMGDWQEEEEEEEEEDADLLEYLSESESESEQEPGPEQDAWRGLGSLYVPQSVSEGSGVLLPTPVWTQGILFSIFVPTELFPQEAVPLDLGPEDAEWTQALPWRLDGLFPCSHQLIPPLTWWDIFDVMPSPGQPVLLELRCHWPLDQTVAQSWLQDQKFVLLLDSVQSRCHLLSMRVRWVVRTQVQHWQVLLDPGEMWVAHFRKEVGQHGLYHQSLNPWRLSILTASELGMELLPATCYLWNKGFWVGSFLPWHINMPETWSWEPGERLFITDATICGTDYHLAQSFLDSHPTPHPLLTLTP
In words: co-IP; stable HEK293 lines expressing TEX19.1-YFP or YFP, transiently transfected with FLAG-UBR2; anti-YFP IP, Western blot with anti-FLAG and anti-YFP. A general note: In western blotting, separated proteins are transferred to a membrane and probed.

The target of assay [2] is T2, mouse TEX19.1-YFP (stably expressed in mouse ESCs) (mouse) (UniProt Q99MV2).
T2 sequence: T1 sequence
As to the kind of experiment: co-IP; anti-YFP (GFP-Trap) IPs from cytoplasmic extracts of mouse ESCs stably expressing TEX19.1-YFP or YFP; Western blot of inputs, IPs and supernatants.

For assay [3], the target named is endogenous mouse UBR2 (mouse (endogenous in mouse ESCs)) (UniProt Q6WKZ8). In words: SEC; Superdex 200 10/300 GL in BC200 buffer (25 mM HEPES pH 7.3, 200 mM NaCl); 2 mg cytoplasmic extract of mouse ESCs; fractions Western blotted. A general note: Size exclusion chromatography separates by hydrodynamic size, large species first.
The next assay deals with FLAG-UBR2 (UniProt Q6WKZ8). In words: co-IP; HEK293T transiently transfected with TEX19.1-YFP and FLAG-UBR2 or FLAG alone; anti-FLAG M2 affinity gel, 1 hr at 4°C, 10 mM Tris pH 7.5, 150 mM NaCl.

Turning to “FLAG-UBR2 (from UniProt Q6WKZ8 1-1755) (enzyme)”, in assay [1], the binding result is reported as “binds”. With “endogenous mouse UBR2 (from UniProt Q6WKZ8 1-1755) (enzyme)”, the binding result in assay [2] is “binds”.

B1: endogenous mouse TEX19.1 (protein, UniProt Q99MV2 1-351)
chain: T1 sequence
B1: the binding entry in assay [3] is “binds”.

B2: mouse TEX19.1-YFP (expressed in HEK293 or HEK293T cells) (protein, UniProt Q99MV2 1-351)
chain: T1 sequence
For the molecule B2, the binding entry with FLAG-UBR2 is listed as “binds”.
